Reference: the supplement of paper PMC12819154, “High-throughput peptide-centric local stability assay extends protein–ligand identification to membrane proteins, tissues and bacteria” (Nature Structural & Molecular Biology, 2025)
The list shows a part of the results. Most entries show no effect beyond the scatter of the controls.

By UniProt entry, the sequences of proteins in these tests, tags left out. Where a name states a change or a piece, a line headed by the entry shows the natural chain unless it says otherwise.
UniProt P77634: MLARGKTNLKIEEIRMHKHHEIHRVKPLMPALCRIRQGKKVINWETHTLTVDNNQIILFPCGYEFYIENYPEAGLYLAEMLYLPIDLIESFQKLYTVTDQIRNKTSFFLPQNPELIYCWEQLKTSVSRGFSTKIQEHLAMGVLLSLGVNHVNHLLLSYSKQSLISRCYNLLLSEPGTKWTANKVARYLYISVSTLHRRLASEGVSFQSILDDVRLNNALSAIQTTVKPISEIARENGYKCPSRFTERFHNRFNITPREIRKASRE
UniProt P76129: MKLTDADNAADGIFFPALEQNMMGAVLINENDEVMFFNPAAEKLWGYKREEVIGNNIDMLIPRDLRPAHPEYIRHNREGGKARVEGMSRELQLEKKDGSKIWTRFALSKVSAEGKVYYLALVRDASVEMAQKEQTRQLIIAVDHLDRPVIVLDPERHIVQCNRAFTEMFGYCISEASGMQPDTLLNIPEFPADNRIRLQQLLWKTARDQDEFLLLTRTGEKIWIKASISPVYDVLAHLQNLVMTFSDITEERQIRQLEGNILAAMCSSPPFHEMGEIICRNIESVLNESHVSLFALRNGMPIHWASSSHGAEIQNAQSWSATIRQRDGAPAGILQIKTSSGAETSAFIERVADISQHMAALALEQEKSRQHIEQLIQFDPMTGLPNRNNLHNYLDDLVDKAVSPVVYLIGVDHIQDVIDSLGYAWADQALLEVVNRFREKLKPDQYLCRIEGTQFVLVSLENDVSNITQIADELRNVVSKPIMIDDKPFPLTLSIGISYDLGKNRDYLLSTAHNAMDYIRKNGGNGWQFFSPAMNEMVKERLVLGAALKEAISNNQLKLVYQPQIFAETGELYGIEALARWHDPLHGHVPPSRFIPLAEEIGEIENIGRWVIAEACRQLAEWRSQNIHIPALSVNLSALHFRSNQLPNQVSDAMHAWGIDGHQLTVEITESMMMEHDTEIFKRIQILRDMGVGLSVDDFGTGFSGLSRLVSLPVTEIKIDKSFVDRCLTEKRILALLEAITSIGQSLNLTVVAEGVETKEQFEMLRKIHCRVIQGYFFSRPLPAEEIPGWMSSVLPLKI
UniProt P75960: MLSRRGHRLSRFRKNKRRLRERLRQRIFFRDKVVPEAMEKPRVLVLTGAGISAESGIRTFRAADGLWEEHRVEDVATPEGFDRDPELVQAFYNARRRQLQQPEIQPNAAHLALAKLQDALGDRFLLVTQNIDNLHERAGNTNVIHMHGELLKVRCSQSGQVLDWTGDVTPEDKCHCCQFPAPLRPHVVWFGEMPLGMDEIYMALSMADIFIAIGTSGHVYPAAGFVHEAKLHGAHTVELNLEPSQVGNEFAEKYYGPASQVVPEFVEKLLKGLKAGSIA
UniProt P77536: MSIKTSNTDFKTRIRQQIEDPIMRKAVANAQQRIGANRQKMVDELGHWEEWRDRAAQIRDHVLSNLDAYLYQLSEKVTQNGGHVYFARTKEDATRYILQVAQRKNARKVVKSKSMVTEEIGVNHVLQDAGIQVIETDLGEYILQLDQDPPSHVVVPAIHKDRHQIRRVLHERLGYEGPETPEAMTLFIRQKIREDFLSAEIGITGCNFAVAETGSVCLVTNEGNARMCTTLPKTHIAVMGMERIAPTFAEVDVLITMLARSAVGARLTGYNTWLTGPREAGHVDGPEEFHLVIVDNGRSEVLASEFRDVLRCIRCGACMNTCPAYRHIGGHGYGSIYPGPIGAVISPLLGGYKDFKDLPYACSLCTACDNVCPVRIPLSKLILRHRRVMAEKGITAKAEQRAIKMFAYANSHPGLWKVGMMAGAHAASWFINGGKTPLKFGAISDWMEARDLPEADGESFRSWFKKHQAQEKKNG
UniProt P75990: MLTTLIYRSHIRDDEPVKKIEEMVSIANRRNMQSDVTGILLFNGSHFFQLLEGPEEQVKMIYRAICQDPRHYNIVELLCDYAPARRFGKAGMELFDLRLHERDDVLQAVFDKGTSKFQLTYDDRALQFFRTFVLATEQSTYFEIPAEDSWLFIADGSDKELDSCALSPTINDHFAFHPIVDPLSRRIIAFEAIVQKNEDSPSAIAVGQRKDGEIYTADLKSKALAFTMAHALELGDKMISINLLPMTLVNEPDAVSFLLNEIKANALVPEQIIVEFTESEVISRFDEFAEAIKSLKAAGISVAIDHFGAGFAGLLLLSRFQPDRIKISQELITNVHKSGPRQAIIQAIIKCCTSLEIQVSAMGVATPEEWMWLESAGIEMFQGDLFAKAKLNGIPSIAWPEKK
UniProt P76063: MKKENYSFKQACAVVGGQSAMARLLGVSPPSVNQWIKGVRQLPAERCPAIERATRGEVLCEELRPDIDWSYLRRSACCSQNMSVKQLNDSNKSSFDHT
UniProt P77485: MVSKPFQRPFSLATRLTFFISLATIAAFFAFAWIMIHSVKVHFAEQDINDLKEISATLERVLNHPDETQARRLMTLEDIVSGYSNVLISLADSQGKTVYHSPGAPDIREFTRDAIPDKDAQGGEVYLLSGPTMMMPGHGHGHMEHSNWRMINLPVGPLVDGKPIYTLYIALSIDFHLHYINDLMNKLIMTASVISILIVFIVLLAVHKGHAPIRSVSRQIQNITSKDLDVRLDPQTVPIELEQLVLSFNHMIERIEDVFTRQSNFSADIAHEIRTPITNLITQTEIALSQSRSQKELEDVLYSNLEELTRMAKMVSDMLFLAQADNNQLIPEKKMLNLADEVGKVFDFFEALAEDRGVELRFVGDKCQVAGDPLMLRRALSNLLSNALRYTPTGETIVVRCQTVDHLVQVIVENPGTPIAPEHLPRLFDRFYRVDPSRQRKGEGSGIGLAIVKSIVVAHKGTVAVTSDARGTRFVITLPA
UniProt P76236: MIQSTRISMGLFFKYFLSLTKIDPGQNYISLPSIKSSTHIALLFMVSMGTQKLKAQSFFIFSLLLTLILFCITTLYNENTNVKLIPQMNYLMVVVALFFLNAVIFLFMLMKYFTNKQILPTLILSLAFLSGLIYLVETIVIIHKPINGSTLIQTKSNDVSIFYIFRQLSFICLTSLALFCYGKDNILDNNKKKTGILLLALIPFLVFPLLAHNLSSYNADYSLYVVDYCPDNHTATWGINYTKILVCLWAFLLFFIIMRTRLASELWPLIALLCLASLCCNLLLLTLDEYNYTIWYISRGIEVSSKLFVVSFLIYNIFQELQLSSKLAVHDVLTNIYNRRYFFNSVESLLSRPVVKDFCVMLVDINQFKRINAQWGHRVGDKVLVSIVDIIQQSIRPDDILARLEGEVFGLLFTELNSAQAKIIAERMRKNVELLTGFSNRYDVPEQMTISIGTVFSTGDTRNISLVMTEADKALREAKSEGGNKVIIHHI
UniProt P77396: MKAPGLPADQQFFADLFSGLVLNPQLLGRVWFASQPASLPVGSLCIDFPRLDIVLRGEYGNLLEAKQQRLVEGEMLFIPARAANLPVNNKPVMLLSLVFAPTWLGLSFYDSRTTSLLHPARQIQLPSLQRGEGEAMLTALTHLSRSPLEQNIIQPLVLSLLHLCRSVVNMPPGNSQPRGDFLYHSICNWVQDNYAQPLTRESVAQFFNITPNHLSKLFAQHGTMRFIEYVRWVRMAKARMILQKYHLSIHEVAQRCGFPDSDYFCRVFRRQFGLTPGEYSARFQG
UniProt P75938: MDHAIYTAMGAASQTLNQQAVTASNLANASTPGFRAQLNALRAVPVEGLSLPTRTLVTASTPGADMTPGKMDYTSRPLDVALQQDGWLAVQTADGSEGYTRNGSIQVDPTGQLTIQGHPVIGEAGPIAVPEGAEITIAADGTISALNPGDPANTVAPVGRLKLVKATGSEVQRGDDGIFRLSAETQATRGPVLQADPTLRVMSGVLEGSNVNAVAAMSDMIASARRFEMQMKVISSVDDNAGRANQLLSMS
UniProt P75869: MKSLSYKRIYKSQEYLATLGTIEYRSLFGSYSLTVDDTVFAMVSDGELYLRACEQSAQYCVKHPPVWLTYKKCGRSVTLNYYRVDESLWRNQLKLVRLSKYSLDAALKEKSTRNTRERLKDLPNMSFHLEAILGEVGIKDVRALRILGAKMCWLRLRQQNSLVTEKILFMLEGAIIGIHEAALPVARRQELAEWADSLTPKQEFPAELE

compound: CC1(C)S[C@@H]2[C@H](NC(=O)[C@H](N)c3ccccc3)C(=O)N2[C@H]1C(=O)O [ampicillin]; assay: log2 fold change of tryptic peptide abundance, ligand vs vehicle (limited proteolysis) (log2 ratio); higher = more trypsin-susceptible (destabilized); settings: ligand concentration: 10 uM; sample: E. coli crude lysate

Target	log2 fold change
UniProt P77634 (peptide sequence: ENGYKCPSR, peptide start residue: 235)	0.327
UniProt P76129 (peptide sequence: VADISQHMAALALEQEK, peptide start residue: 351)	0.188
UniProt P75960 (peptide sequence: AADGLWEEHR, peptide start residue: 62)	0.276
UniProt P77536 (peptide sequence: TPLKFGAISDWMEAR, peptide start residue: 436)	-0.579
UniProt P75990 (peptide sequence: KDGEIYTADLK, peptide start residue: 210)	0.872
UniProt P76063 (peptide sequence: SACCSQNMSVK, peptide start residue: 75)	0.513
UniProt P77485 (peptide sequence: QSNFSADIAHEIR, peptide start residue: 262)	0.477
UniProt P76236 (peptide sequence: EAKSEGGNK, peptide start residue: 477)	0.0593
UniProt P77396 (peptide sequence: QFGLTPGEYSAR, peptide start residue: 271)	0.234
UniProt P75938 (peptide sequence: AVPVEGLSLPTR, peptide start residue: 43)	-0.149
UniProt P75869 (peptide sequence: VDESLWR, peptide start residue: 84)	-0.11

Some of the entries so far, as comma-separated lines.
Target,log2 fold change
"UniProt P75960 (peptide sequence: AADGLWEEHR, peptide start residue: 62)",0.276
"UniProt P75990 (peptide sequence: KDGEIYTADLK, peptide start residue: 210)",0.872
"UniProt P77485 (peptide sequence: QSNFSADIAHEIR, peptide start residue: 262)",0.477
